The text below walks through data of PMC9082862.

Sequences of proteins named here, by UniProt entry; tags and fusion partners are left off.
UniProt Q14145: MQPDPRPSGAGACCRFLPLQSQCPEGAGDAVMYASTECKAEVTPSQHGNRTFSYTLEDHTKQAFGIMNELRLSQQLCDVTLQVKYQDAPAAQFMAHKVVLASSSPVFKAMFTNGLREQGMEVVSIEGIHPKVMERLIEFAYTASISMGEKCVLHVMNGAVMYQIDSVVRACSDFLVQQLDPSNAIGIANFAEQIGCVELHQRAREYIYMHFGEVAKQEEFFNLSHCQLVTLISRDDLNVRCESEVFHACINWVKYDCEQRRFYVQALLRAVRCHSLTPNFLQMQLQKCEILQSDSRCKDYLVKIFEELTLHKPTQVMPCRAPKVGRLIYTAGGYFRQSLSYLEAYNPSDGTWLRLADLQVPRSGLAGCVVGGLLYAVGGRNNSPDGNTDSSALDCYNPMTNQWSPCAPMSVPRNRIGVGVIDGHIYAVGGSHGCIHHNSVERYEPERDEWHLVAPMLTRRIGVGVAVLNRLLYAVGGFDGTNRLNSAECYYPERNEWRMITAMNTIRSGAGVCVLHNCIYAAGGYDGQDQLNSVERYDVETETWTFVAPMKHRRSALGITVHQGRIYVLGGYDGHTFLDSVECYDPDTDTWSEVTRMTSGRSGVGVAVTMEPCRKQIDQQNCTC

In one assay the target is T1, Flag-TRIM15 (UniProt Q9C019).
T1 sequence: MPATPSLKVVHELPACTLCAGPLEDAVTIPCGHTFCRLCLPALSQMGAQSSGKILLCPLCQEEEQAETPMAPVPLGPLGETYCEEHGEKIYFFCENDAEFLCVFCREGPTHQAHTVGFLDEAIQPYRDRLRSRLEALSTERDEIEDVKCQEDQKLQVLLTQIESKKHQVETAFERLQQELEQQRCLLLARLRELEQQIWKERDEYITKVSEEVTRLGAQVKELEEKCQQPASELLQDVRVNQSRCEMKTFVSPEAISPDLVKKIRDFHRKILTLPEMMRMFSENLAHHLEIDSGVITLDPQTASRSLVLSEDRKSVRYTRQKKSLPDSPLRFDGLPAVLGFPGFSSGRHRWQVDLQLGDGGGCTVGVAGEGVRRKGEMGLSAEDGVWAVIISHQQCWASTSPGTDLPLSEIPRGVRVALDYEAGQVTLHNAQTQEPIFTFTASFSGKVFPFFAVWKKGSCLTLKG
Kind of assay: co-IP; HEK293 cells expressing Flag-TRIM15 and HA-Keap1; reciprocal; IP lysis buffer 20 mM Tris pH 7.5, 150 mM NaCl, 1% TritonX-100, 1 mM EDTA; protein A/G agarose beads overnight.

The target of a further assay is HA-Keap1 (UniProt Q14145). The assay is described as above.
The target of assay [1] is endogenous Keap1 (human (endogenous in H1299 and H1975)) (UniProt Q14145). The assay is described as follows: co-IP; endogenous proteins in lysates of H1299 and H1975 cells; antibodies against TRIM15 and Keap1 or negative control IgG, protein A/G agarose beads overnight; IP lysis buffer 20 mM Tris pH 7.5, 150 mM NaCl, 1% TritonX-100, 1 mM EDTA.

No constants are given. Whether binding was seen depends on the method and setting. Binding seen in cells or lysates may run through a third protein. Some entries that bind do so weakly or less than the wild type. For part of these data: Tags and fused reporters may be left off the sequences shown.

Take HA-Keap1 (from UniProt Q14145 1-624): the binding result in the assay with Flag-TRIM15 is “binds”.

B1: Flag-TRIM15 (protein, UniProt Q9C019 1-465)
chain: T1 sequence
Consider B1, for which the binding result with HA-Keap1 was “binds”.

B2: endogenous TRIM15 (protein, UniProt Q9C019 1-465)
chain: T1 sequence
For B2, the binding result in assay [1] is reported as “binds”.
